Source: article PMC12557800
Results are given in words; binding and its absence hold for the method and conditions named. In cells and extracts the contact can be indirect. These calls come from enrichment with a bait or labelling near it, and not all partners need be listed. A no says only that the protein was not detected with the bait. Sequences can lack the tags named with a protein.

Molecular target: T1, TMEM217-3xFLAG (mouse, transgene in Tmem217-3xFLAG Tg mice) (mouse) (UniProt Q14AF1)
T1 sequence: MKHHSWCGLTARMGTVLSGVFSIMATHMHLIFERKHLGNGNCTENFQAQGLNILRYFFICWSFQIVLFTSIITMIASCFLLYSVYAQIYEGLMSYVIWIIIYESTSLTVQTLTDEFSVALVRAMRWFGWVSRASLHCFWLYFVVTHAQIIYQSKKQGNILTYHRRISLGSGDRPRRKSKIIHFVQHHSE
Assay: affinity purification with mass spectrometry; TMEM217-3xFLAG immunoprecipitated with an anti-FLAG antibody from testis lysates of Tmem217 KO; Tg mice (#1-#3), WT testes as control; LC-MS

Row | Binder | binding
1 | SLC9C1 (sperm-specific Na+/H+ exchanger), endogenous in mouse testis (protein, UniProt Q6UJY2 1-1175) MEMEEISENLTASHSIKLTNMWLELLKSVFLSTPQDLPEIILILSLICTVGAFLNMHLKDFPIPLPVILFLIGCCFEILSFASTQIQIYADAIQWMDPDIFFGIFTPVIIFNVAFDMDIYMLQKLFWQILVITIPGFLINYTLILWYLQSVNKLSLKTVPWLLFSAVLISSDPMLTSASIRDLGLSRSLTNLINGESLLTSVLSLVIYSGVVHIRFKSKSVNHTLAHKVMSTAWSYIVESFITGIVFTKVIQLWMATIFGDDVNHITLIFSVLYLIFYVCELVGMSGIFTLATIGLFLNSTSFKPGVEAFLLEFWNCLSFIGFLMVFTFIGLLIPAHTYLHISFSDVYYSLNIYFTLIVLRLLVFLLMSPILSRLGHGFSWRWAFIMVWSEMKGTPNINMALLLAYSDISLGSERERSQILFHGVSVCVITLIVNRFILPMAVTKLGLRDVTSTKYKSVYYTFQHFQELTKSTAMALKFDKDLANADWNMVDNAIILQNPYAMNQEEITEHQKVKCPDCNKEIDETLNIEAMELTNRRLLSAQIASYQRQYRNEVLSQSAVQVLVGAAGSFGEKKGEYMSPENIKNFSESKKLLSFLRKLLLNWVYNTKKDKGVPSRYMFLHACHRIVFTNEFEYTGYLVVLMSTYPMIICWISRLKDIYDNEIKCANYYFLAFYILEALLKVAAMRKEFFSHTWLLFELGITLVGVLDIILIETDSISYNFDLTETVVFMNVIRLLRILRILKLVTPKLLQIIDKRMSQQISFRYSILKGYVQGEMDVLNIIDQIASSKQTKQILLKRVMRNMEHAMKELGYLEYDHPEIAVTMKTKEEINVMLNMAREIVKAFRSKGIIHKVEGTEINKLIMAKKIQVLDLQSVIQPFNVEEAPCNIPWLSEDPEAITFIQEKAKVVTFDCGNNIFEEGDEPEGIYVIISGMVKLKRSKPHLEMERVSAESEIKIHPLPHTEYLLSGEIIGELNCLTKERMQYSATCKTVVETYFIPISHLYEGFEKRCPNMKHKMWQKIGLAITAQKIREHLSFEDWNYKLQLKLCNAFIRDIPKSMKTDIYDETVTHVVLIHGSAEDCQLRKIYKAPFLIPVTCHQIQGMEDFTKVMIIQTSIAVRKFRWNVRKYIPPRRISMKPDSERESFETLDETSEEDNGKKENQENEELIEENINI | binds
2 | IFT121 (WDR35), endogenous in mouse testis (protein, UniProt Q8BND3 1-1181) MFFYLSKKIAVPNNVKLKCISWNKDQGFIACGGEDGLLKVLRLETQTDDSKLRGLAAPSNLSMNQNLEGHSGAVQVVTWNEQYQKLTTSDQNGLIIVWMLYKGSWYEEMINNRNKSVVRSMSWNADGQKICIVYEDGAVIVGSVDGNRIWGKDLKGIQLCHVTWSADSKILLFGMANGEIHIYDNQGNFIMKMKLNCLVNVTGAISIAGIHWYHGTEGYVEPDCPCLAICFDNGRCQIMRHENDQNPVLIDTGMYVVGIQWNHIGSVLAVAGSQKVVTQDKDINIVQFYTPFGEHLGTLKVPGKQMCSLSWEGGGLKIALAVDSFIYFANIRPDYKWGYCSNTVVYAYTRPDRPEYCVVFWDTKNSEKYVKYVKSLISITTCGDFCILATKADENHPQEENEMETFGATFVLVLCNSIGTPLDPKYIDLVPLFVAMTKTHVIAASKEAFYTWQYRVAKKLTALEINQITRSRKEGRERIYHVDDVPSGSVDGVFDYSKAIQGTRDPICAITASDKTLIVGRESGVIQRYSFPNVALIQKYSLDCRACQLSLNCNSSRLAIIDIAGVLTFFDLDTRVTDSTGQQVVGELLKLERKDVWDMKWAKDNPDLFAMMEKTRMYVFRNLDPEEPIQTSGYICNFEDLEIKSVLLDEILKDPEHPSKDYIMNFEIRSLRDSRALIEKVGIEDASQFIEDNPHPRLWRLLAEAALQKLDLYTAQQAFVRCKDYQGIKFVKLLGNLQSESMKQAEVIAYFGRFEDAERMYQDMDRRDLAIGLRMKLGDWFRVLQLLKTGSGDADDSLLEQANNAIGEYFADRQKWQNAVQYYVKGRNQERLAECYYMLEDYEGLETLANSLPENHKLLPEIAQMFVRVGMCEQAVSAFLKCNQPKAAVDTCVHLNQWNKAVELAKSHSMKEIGSLLARYASHLLEKNKTLDAIELYRKASYFFDAAKLMYKIADEEAKKRTKPLRVKKLYVLSALLIEQYHEQMKNAQRGKVKGKNSEATSALAGLLEEEVLSTTSRFTDNAWRGAEAYHFFILAQRQLYEGYVDTALKTALHLRDYEDIIPSVEIYSLLALCACASRAFGTCSKAFIKLESLETLSAEQKQQYEDLALEIFTKHTPKDNRKSELNSLLEGGEGKLPTCIATGSPIIEYQFWVCKVCKHYVLAQEISNYNFCPLCHSSVE | binds
3 | IFT122, endogenous in mouse testis (protein, UniProt Q6NWV3 1-1182) MRAVLTWRDKAEQCIYDLAFKPDGTQLILAAGNRLLVYDTSDGTLLQPLKGHKDTVYCVAYAKDGKRFASGSADKSIIIWTSKLEGILKYTHNDSIQCVSYNPVTHQLASCSSSDFGLWSPEQKSVSKHKSSSKITCCSWTNDGQYLALGMANGIISIRNKNGEEKVKIERPGGSLSPIWSICWNPSREEHNDILAVADWGQKLSFYQLSGKQIGKDRPLNFDPCCISYFTKGEYILVGGSDKQVSLFTKDGVRLGTVGEQNSWVWTCRVKPDSNYVVVGCQDGTISFYQLIFSTVHGLYKDRYAYRDSMTDVIVQHLITEQKVRIKCRELVKKIAIYKNRLAIQLPEKILIYELYSEDSTDMHYRVKEKIVKKFECNLLVVCADHIILCQEKRLQCLSFSGVKEREWQMESLIRYIKVIGGPAGREGLLVGLKNGQILKIFVDNLFAIVLLKQATAVRCLDMSASRNKLAVVDENDTCLVYDIHTKELLFQEPNANSVAWNTQCEDMLCFSGGGYLNIKASTFPVHQQKLQGFVVGYNGSKIFCLHVFSMSAVEVPQSAPMYQYLDRKMFKEAYQIACLGVTDADWRELAMEALEGLEFETARKAFTRVQDLRYLELISSIEERKKRGETNNDLFLADVFSYQGKFHEAAKLYKRSGHENLALDMYTDLCMFEYAKDFLGSGDPKETKMLITKQADWARNINEPKAAVEMYISAGEHAKAIEISGSHGWVDMLIDIARKLDKAEREPLLMCACYFKKLDSPGYAAETYLKIGDLKSLVQLYVDTKRWDEAFALGEKHPEFKDDVYVPYAQWLAENDRFEEAQKAFHKAGRQGEAVRVLEQLTHNAVVESRFNDAAYYYWMLSMQCLDMAQDPAQKDAMLDKFHHFQHLAELYHGYQTIHRYTEEPFSFDLPETLFNISKFLLHSLTKATPLGISKVNTLFTLAKQSKALGAYKLARHAYDKLRGLQIPARIQKSIELGTLTIRSKPFHDSEELVPLCYRCSTNNPLLNNLGNVCINCRQPFIFSASSYEVLHLVEFYLEEGITDEEAVALIDLEAPRHKREGKWRETSSNNSQTLKLDETMDSIGEDDPFTAKLSFEQGSSEFVPVVVNRSVLRSMSRRDVLIKRWPPPLQWQYFRSLLPDASITMCPSCFQMFHSEDYELLVLQHACCPYCRRRIDDTGP | binds
4 | IFT139 (TTC21B), endogenous in mouse testis (protein, UniProt Q0HA38 1-1315) MDSQGLKTLINYYCQERYYHHVLLVASEGMKKYSSDPVFRFYHAYGTLMEGKAQEALREFEAIKNKQDVSLCSLMALMYVHKMSPNPDREAILELDTKMKEQRKEAGRKALYHAGLFLWHIGRHDKAREYIDRMSKMPHDSNEGPILKAWLDITRGKEPYAKKALRYFEEGLQDGNDIFALLGKVLCLEIRQNYSGALETVSQIIVNFPSFLPAFEKKMKLQLALQDWDQTVETAQRLLLQDNHNVEALRMLALYYLCREGDVEKAATKLENLGNALDVMEPQNAQLFYKITLAFSRTCGRNQLILQKVQSFLEKAFSLTPQQAEIATELGYQMILQGKVKEAWKWYRTAMTLNESNISAVTGLIRCQLIEGQLQDADQQLEFFSEFQQSMGKSAELMYLHAVLATKKNNRQDEVINLLNDVVNTHFSHLEDLPLGIQYFEKLNPDFLLEVVTEYLNLCPIQPAGPGQPLSPVLRRCSSVLETIIRSVPGLPQAVFLMAKVKYLSGDTEAAYNNLQHCLEHSPSYAEAHLLMAQVYLSQDKVKLCSQSLELCLSYNFNVREYPLYHLIKAQSQKKMGEVAEAIKTLHMAMNLPGMRRSRASSKSKHRTEVDASHRLSIFLELVEVHRLNGEQHEAAKVLQDAIHEFSGTCEELRVTIANADLALAQGDTDRALSMLRNVTTEQPYFIEAKEKMADIYLKHRKEKMLYITCYREIAERMPSPRSFLLLGDAYMNIQEPEEAIVAYEQALNQNPKDGTLARKIGKALVKTHNYSKAITYYEAALKSGQQNCLCYDLAELLLRLKLYEKAEKVLQHSLAHEPVSELSALMVDGRSQVLLAKVYSKMERPSDAIAALQQARELQARILKRVQMEQPDAVPSQKHFAAEICAEIAKHSAAQRDYEKAITFYREALVHCETDSKIMLELAQLYLAQEDLDASLRHCALLLQRDQDNEPATMLMADLMFRKQDYEQAVYHLQQLLDRKPDNFMTLSRLIDLLRRCGKLEDVPRFFLMAEKHNSRTKLEPGFQYCKGLHFWYTGEPNDALRHFNKARKDSDWGQNALYNMIEICLNPDNETIGGEVFENLNGDLGTSPEKQESVQLAVRTAEKLLKELKPQTVQGRLQLRIMENCCLMATKQKSSVEQALNTFTEIAASEKDHIPALLGMATAYMILKQTPKARNQLKRIAKMPWNPIEAEDLEKSWLLLADIYIQSAKYDMAEELLKRCLCHNRSCCKAYEYMGYIMEKEQAYTDAAFNYEMAWKHSNQTNPAVGYKLAFNYLKAKRYVDAIDVCHQVLEAHPTYPKIRKDILDKARASLRP | binds
5 | SLC9B1 (NHA1), endogenous in mouse testis (protein, UniProt Q8C0X2 1-565) MSEHDVESNKKDDGFQSSVTVEMSKDPDSFHEETVEPKPELKEPEPKEPEPKEPERKEPERKEPERKEPERKEPERKVPGRRETQTKETQTTEIERKETKKKRGTNSYCPPQGTINKTITDGAALIALWTLLWALIGQEVLPGGNLFGLVVIFYSAFLGGKILEFIKIPVVPPLPPLIGMLLAGFTIRNVPIIYEFVHIPTTWSSALRNTALTIILVRAGLGLDPQALKHLKGVCLRLSFGPCFLEACSAALFSHFIMNFPWQWGFLLGFVLGAVSPAVVVPNMLMLQENGYGVEKGIPTLLVAASSMDDIVAITGFNTFLSIVFSSGSVISNILSSLRDVLIGVLVGIVMGVFVQYFPSGDQERLTQRRAFLVLSMCISAVLGCQHIGLHGSGGLVTLVLSFMAAKRWAEEKVGIQKIVANTWNVFQPLLFGLVGTEVSVESLESKTIGMCLATLGLALSVRILSTFVLMSFANFRFKEKVFIALSWIPKATVQAVLGPLALETARVMAPHLEGYAKAVMTVAFLAILITAPNGALLIGILGPKILEQSEVTFPLKVELSNFHH | no binding
6 | SLC9B2 (NHA2), endogenous in mouse testis (protein, UniProt Q5BKR2 1-547) MEDEDKTAECQHSKPPTGITHEAPPHHELQEERVMSLRGTDRSEPTEGSNLLTSGEKKPQDSPTEPNGLQSLRRFLACPPRGCLARVITNGTMVVLLWAMVWSVTGPECLPGGNLFGIIILFYCSITGGKLFGLIKFPTLPPLPPLLGMLLAGFLLRNIPVINDSVRIQHKWSSSLRSIALSVILVRAGLGLDSKALRKLKGVCVRLAMGPCIVEACASAILSHFLMGLPWQWGFILGFVVGAVSPAVVVPSMLLLQEGGYGVGKGIPTLLMAAGSFDDILAITGFNTCLGVAFSTGSTVFNIFRGILEVVIGVAAGSFLGFFIQYFPSRDQDNLVWKRAFLVLGFAVLAVFSSVYFSFPGSGGLCTLVMAFLAGMRWTDKKSEVEKVIAVTWDVFQPLLFGLIGAEVSIVSLRAETVGLCVATLSIAVLIRILTTFLMVCFAGFNIKEKIFISFAWLPKATVQAAIGSVALDTARSHGEKQLEDYGMDVLTVAFLAILITAPIGSLLIGLLGPRVLQKSEHRTEEEVQGETSAHIQRKPEDSITEA | no binding
